# Experimental data as given in the supplement of paper PMC8728848.
# The list shows a part of the results.
# B1: MIC2 (Toxoplasma gondii), S8F9G8 (protein)
# chain: MRLQREAVFGLMFACGMWMWPSEVAGGGWSIVDALRKRYDTSRGGDANGVDTSGVEDVIQSESAIGAAEGCTNQLDICFLIDSSGSIGIQNFRLVKQFLHTFLMVLPIGPEEVNNAVVTYSTDVHLQWDLQSPNAVDKQLAAHAVLDMPYKKGSTNTSDGLKACKQILFTGSRPGREHVPKLVIGMTDGESDSDFRTVRAAKEIRELGGIVTVLAVGHYVKHSECRSMCGCSGTSDDDSPCPLYLRADWGQLATAIKPMLKEVCKTLPQDAICSDWSAWSPCSVSCGDGSQIRTRTEVSAPQPGTPTCPDCPAPMGRTCVEQGGLEEIRECSAGVCAVDAGCGVWGEWSAWSASCGNATRKRERTRYNDPPPQGAGRRCENQDPPVLQEQTEEATLAPCITIPPTPPEWAAWSDCTVTCGGGNRHRVRNALPPGLGSQNGESDESLVSKLWPGTDLRQEEACNTSPCPINATCGQFEEWSTCSVSCGGGLKTRSRNPWNEDQQHGGLSCEQQHPGGRTETITCNPQACPVDERPGEWAEWGECSVTCGDGVRERRRGKSLVEAKFGGRTIDQQNEALPEDLKIKNVEYEPCSYPACGASCTYVWSDWNKCVCPMGYQARHAAVKFDYRNKPCDLPTFETKACSCGETNPVPSEGTTPGAPGATGPEQPNQRPLPEGSDENETPTNEEGEQSKKESGSGIAGAIAGGVIGGLILLGAAGGASYHYYLSSSVGSPSAEIEYEADDGATKVVMEEEKETLVPVDDDSDMWME
# Experiments:
# Experiment in all cases: glycan array binding signal (z-score within array); higher = stronger binding
# Conditions in all cases: glycan notation: IUPAC condensed, linker removed
# [1] = target: Gal3S(b1-4)[Fuc(a1-3)]Glc
# How it was run: (§1)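 The binding signal is a Z-score computed within each array. Data were drawn from 3228 arrays in the Consortium for Functional Glycomics database, restricted to those with a known protein sequence. Scores were averaged over arrays of the same protein sequence at different concentrations or buffers, and over linkers, and negative values can be taken as non-binding.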
# [2] = target: Gal3S(b1-4)[Fuc(a1-3)]Glc6S
# How it was run: as §1
# Gal3S4S(b1-4)GlcNAc = target: Gal3S4S(b1-4)GlcNAc
# How it was run: as §1
# Gal3S6S(b1-4)GlcNAc = target: Gal3S6S(b1-4)GlcNAc
# How it was run: as §1
# Gal3S6S(b1-4)GlcNAc6S = target: Gal3S6S(b1-4)GlcNAc6S
# How it was run: as §1
# Gal4S(b1-4)GlcNAc = target: Gal4S(b1-4)GlcNAc
# How it was run: as §1
# Gal4S6S(b1-4)GlcNAc = target: Gal4S6S(b1-4)GlcNAc
# How it was run: as §1
# Gal6S(b1-4)Glc = target: Gal6S(b1-4)Glc
# How it was run: as §1
# Gal6S(b1-4)Glc6S = target: Gal6S(b1-4)Glc6S
# How it was run: as §1
# Gal6S(b1-4)GlcNAc = target: Gal6S(b1-4)GlcNAc
# How it was run: as §1
# Gal6S(b1-4)GlcNAc6S = target: Gal6S(b1-4)GlcNAc6S
# How it was run: as §1
# GalNAc(a1-3)Gal = target: GalNAc(a1-3)Gal
# How it was run: as §1
# GalNAc(a1-3)GalNAc = target: GalNAc(a1-3)GalNAc
# How it was run: as §1
# [3] = target: GalNAc(a1-3)GalNAc(a1-3)Gal(a1-4)Gal(b1-4)GlcNAc
# How it was run: as §1
# GalNAc(b1-3)Gal = target: GalNAc(b1-3)Gal
# How it was run: as §1
# [4] = target: GalNAc(b1-3)Gal(a1-4)Gal(b1-4)GlcNAc
# How it was run: as §1
# [5] = target: GalNAc(b1-3)Gal(a1-4)Gal(b1-4)GlcNAc(b1-3)Gal(b1-4)Glc
# How it was run: as §1
# [6] = target: GalNAc(b1-3)Gal(a1-6)Gal(b1-4)Glc
# How it was run: as §1
# GalNAc(b1-3)GalNAc = target: GalNAc(b1-3)GalNAc
# How it was run: as §1
# GalNAc(b1-4)GlcNAc = target: GalNAc(b1-4)GlcNAc
# How it was run: as §1
# [7] = target: GalNAc(b1-4)GlcNAc(b1-2)Man(a1-3)[GalNAc(b1-4)GlcNAc(b1-2)Man(a1-6)]Man(b1-4)GlcNAc(b1-4)GlcNAc
# How it was run: as §1
# Glc(a1-4)Glc = target: Glc(a1-4)Glc
# How it was run: as §1
# Glc(a1-6)Glc(a1-6)Glc = target: Glc(a1-6)Glc(a1-6)Glc
# How it was run: as §1
# Glc(b1-4)Glc = target: Glc(b1-4)Glc
# How it was run: as §1
# Glc(b1-6)Glc = target: Glc(b1-6)Glc
# How it was run: as §1
# GlcA(b1-3)Gal = target: GlcA(b1-3)Gal
# How it was run: as §1
# GlcA(b1-3)GlcNAc = target: GlcA(b1-3)GlcNAc
# How it was run: as §1
# GlcA(b1-6)Gal = target: GlcA(b1-6)Gal
# How it was run: as §1
# [8] = target: GlcNAc(a1-3)Gal(b1-4)GlcNAc
# How it was run: as §1
# [9] = target: GlcNAc(a1-4)Gal(b1-3)GlcNAc
# How it was run: as §1
# [10] = target: GlcNAc(a1-4)Gal(b1-4)GalNAc
# How it was run: as §1
# [11] = target: GlcNAc(a1-4)Gal(b1-4)GlcNAc
# How it was run: as §1
# [12] = target: GlcNAc(a1-4)Gal(b1-4)GlcNAc(b1-3)Gal(b1-4)Glc
# How it was run: as §1
# [13] = target: GlcNAc(a1-4)Gal(b1-4)GlcNAc(b1-3)Gal(b1-4)GlcNAc
# How it was run: as §1
# [14] = target: GlcNAc(a1-4)Gal(b1-4)GlcNAc(b1-3)Gal(b1-4)GlcNAc(b1-3)Gal(b1-4)GlcNAc
# How it was run: as §1
# [15] = target: GlcNAc(a1-4)Gal(b1-4)GlcNAc(b1-3)Gal(b1-4)[Fuc(a1-3)]GlcNAc(b1-3)Gal(b1-4)[Fuc(a1-3)]GlcNAc
# How it was run: as §1
# [16] = target: GlcNAc(a1-6)Gal(b1-4)GlcNAc
# How it was run: as §1
# [17] = target: GlcNAc(b1-2)Gal(b1-3)GalNAc
# How it was run: as §1
# [18] = target: GlcNAc(b1-2)Man(a1-3)[GlcNAc(b1-2)Man(a1-6)]Man(b1-4)GlcNAc(b1-4)GlcNAc
# How it was run: as §1
# [19] = target: GlcNAc(b1-2)Man(a1-3)[GlcNAc(b1-2)Man(a1-6)]Man(b1-4)GlcNAc(b1-4)[Fuc(a1-6)]GlcNAc
# How it was run: as §1
# [20] = target: GlcNAc(b1-2)[GlcNAc(b1-4)]Man(a1-3)[GlcNAc(b1-2)Man(a1-6)]Man(b1-4)GlcNAc(b1-4)GlcNAc
# How it was run: as §1
# GlcNAc(b1-3)Gal = target: GlcNAc(b1-3)Gal
# How it was run: as §1
# [21] = target: GlcNAc(b1-3)Gal(b1-3)GalNAc
# How it was run: as §1
# GlcNAc(b1-3)Gal(b1-4)Glc = target: GlcNAc(b1-3)Gal(b1-4)Glc
# How it was run: as §1
# [22] = target: GlcNAc(b1-3)Gal(b1-4)GlcNAc
# How it was run: as §1
# [23] = target: GlcNAc(b1-3)Gal(b1-4)GlcNAc(b1-3)Gal(b1-4)GlcNAc
# How it was run: as §1
# GlcNAc(b1-3)GalNAc = target: GlcNAc(b1-3)GalNAc
# How it was run: as §1
# GlcNAc(b1-3)Man = target: GlcNAc(b1-3)Man
# How it was run: as §1
# [24] = target: GlcNAc(b1-3)[GlcNAc(b1-4)][GlcNAc(b1-6)]GlcNAc
# How it was run: as §1
# [25] = target: GlcNAc(b1-3)[GlcNAc(b1-6)]Gal(b1-4)GlcNAc
# How it was run: as §1
# [26] = target: GlcNAc(b1-3)[GlcNAc(b1-6)]GalNAc
# How it was run: as §1
# [27] = target: GlcNAc(b1-4)Gal(b1-4)GlcNAc
# How it was run: as §1
# GlcNAc(b1-4)GlcNAc = target: GlcNAc(b1-4)GlcNAc
# How it was run: as §1
# [28] = target: GlcNAc(b1-4)GlcNAc(b1-4)GlcNAc
# How it was run: as §1
# [29] = target: GlcNAc(b1-4)GlcNAc(b1-4)GlcNAc(b1-4)GlcNAc(b1-4)GlcNAc
# How it was run: as §1
# [30] = target: GlcNAc(b1-4)GlcNAc(b1-4)GlcNAc(b1-4)GlcNAc(b1-4)GlcNAc(b1-4)GlcNAc
# How it was run: as §1
# [31] = target: GlcNAc(b1-4)[GlcNAc(b1-6)]GalNAc
# How it was run: as §1
# [32] = target: GlcNAc(b1-6)Gal(b1-4)GlcNAc
# How it was run: as §1
# GlcNAc(b1-6)GalNAc = target: GlcNAc(b1-6)GalNAc
# How it was run: as §1
# GlcNAc3Prop(b1-4)GlcNAc = target: GlcNAc3Prop(b1-4)GlcNAc
# How it was run: as §1
binder,measurement,setting,value
B1,glycan array binding signal (z-score),[1],0.795
same,glycan array binding signal (z-score),[2],4.19
same,glycan array binding signal (z-score),Gal3S4S(b1-4)GlcNAc,3.35
same,glycan array binding signal (z-score),Gal3S6S(b1-4)GlcNAc,2.02
same,glycan array binding signal (z-score),Gal3S6S(b1-4)GlcNAc6S,3.06
same,glycan array binding signal (z-score),Gal4S(b1-4)GlcNAc,-0.874
same,glycan array binding signal (z-score),Gal4S6S(b1-4)GlcNAc,2.56
same,glycan array binding signal (z-score),Gal6S(b1-4)Glc,-0.567
same,glycan array binding signal (z-score),Gal6S(b1-4)Glc6S,1.99
same,glycan array binding signal (z-score),Gal6S(b1-4)GlcNAc,-0.251
same,glycan array binding signal (z-score),Gal6S(b1-4)GlcNAc6S,1.93
same,glycan array binding signal (z-score),GalNAc(a1-3)Gal,-1.07
same,glycan array binding signal (z-score),GalNAc(a1-3)GalNAc,-0.34
same,glycan array binding signal (z-score),[3],-0.574
same,glycan array binding signal (z-score),GalNAc(b1-3)Gal,-0.556
same,glycan array binding signal (z-score),[4],-0.362
same,glycan array binding signal (z-score),[5],-0.26
same,glycan array binding signal (z-score),[6],-1.16
same,glycan array binding signal (z-score),GalNAc(b1-3)GalNAc,-0.893
same,glycan array binding signal (z-score),GalNAc(b1-4)GlcNAc,-0.066
same,glycan array binding signal (z-score),[7],-0.457
same,glycan array binding signal (z-score),Glc(a1-4)Glc,-0.177
same,glycan array binding signal (z-score),Glc(a1-6)Glc(a1-6)Glc,0.647
same,glycan array binding signal (z-score),Glc(b1-4)Glc,-0.807
same,glycan array binding signal (z-score),Glc(b1-6)Glc,-0.348
same,glycan array binding signal (z-score),GlcA(b1-3)Gal,0.722
same,glycan array binding signal (z-score),GlcA(b1-3)GlcNAc,-0.023
same,glycan array binding signal (z-score),GlcA(b1-6)Gal,0.166
same,glycan array binding signal (z-score),[8],-1.08
same,glycan array binding signal (z-score),[9],0.475
same,glycan array binding signal (z-score),[10],0.632
same,glycan array binding signal (z-score),[11],-0.232
same,glycan array binding signal (z-score),[12],-0.113
same,glycan array binding signal (z-score),[13],0.748
same,glycan array binding signal (z-score),[14],0.145
same,glycan array binding signal (z-score),[15],3.35
same,glycan array binding signal (z-score),[16],-1.04
same,glycan array binding signal (z-score),[17],-0.003
same,glycan array binding signal (z-score),[18],-0.726
same,glycan array binding signal (z-score),[19],4
same,glycan array binding signal (z-score),[20],-0.71
same,glycan array binding signal (z-score),GlcNAc(b1-3)Gal,0.042
same,glycan array binding signal (z-score),[21],1.7
same,glycan array binding signal (z-score),GlcNAc(b1-3)Gal(b1-4)Glc,-1
same,glycan array binding signal (z-score),[22],-0.053
same,glycan array binding signal (z-score),[23],-0.403
same,glycan array binding signal (z-score),GlcNAc(b1-3)GalNAc,0.017
same,glycan array binding signal (z-score),GlcNAc(b1-3)Man,-0.817
same,glycan array binding signal (z-score),[24],-0.199
same,glycan array binding signal (z-score),[25],-0.112
same,glycan array binding signal (z-score),[26],-0.444
same,glycan array binding signal (z-score),[27],-0.948
same,glycan array binding signal (z-score),GlcNAc(b1-4)GlcNAc,-0.862
same,glycan array binding signal (z-score),[28],-0.807
same,glycan array binding signal (z-score),[29],0.878
same,glycan array binding signal (z-score),[30],0.267
same,glycan array binding signal (z-score),[31],-1.16
same,glycan array binding signal (z-score),[32],-0.283
same,glycan array binding signal (z-score),GlcNAc(b1-6)GalNAc,-0.482
same,glycan array binding signal (z-score),GlcNAc3Prop(b1-4)GlcNAc,-0.735

# A different layout for part of the listing above.
binder	measurement	setting	value
B1	glycan array binding signal (z-score)	[23]	-0.403
same	glycan array binding signal (z-score)	GlcNAc(b1-3)GalNAc	0.017
same	glycan array binding signal (z-score)	GlcNAc(b1-3)Man	-0.817
same	glycan array binding signal (z-score)	[24]	-0.199
same	glycan array binding signal (z-score)	[25]	-0.112
